Measurements reported in PubChem BioAssay AID602196 (INSERM, 2012).
Assay: 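Modifiers of cisplatin sensitivity in A549 cells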. Cells: human A549 lung cancer cells. Reagent: siRNA pair against human genes. Time to read-out: 48 h transfection before cisplatin; time from cisplatin to read-out not stated. Treatment: cisplatin at a dose killing half of control-siRNA cells; exact dose and duration not given. Detection: 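Shift in cisplatin death relative to control siRNA, from -50 (all cells die) to +50 (no cells die); siRNAs harmful on their own scored 0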. Scale: two-siRNA summed score (-2 to +2): higher = both siRNAs protect from cisplatin killing; -2 means both sensitise; mean protection from cisplatin (shift in death) and protection from cisplatin (shift in death), siRNA C and protection from cisplatin (shift in death), siRNA D: higher = protection from cisplatin killing. Active means: 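Each siRNA scores 0 if harmful alone by LDH or WST-1, otherwise +1 if it reduces and -1 if it increases cisplatin killing; a gene is active when both siRNAs agree (sum +2 or -2)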. Calls: active = both siRNAs shift cisplatin killing the same way; inactive = no consistent shift, or siRNA harmful alone.
Here is an unselected part of about 23,000 reagents tested. 455 of all reagents (2%) were called active. 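Active includes both protection and sensitisation; some change values fall well beyond the stated -50 to +50 range.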 No sequences are given here. Not stated in the record: the amount of reagent.

| gene knocked down | two-siRNA summed score (-2 to +2) | mean protection from cisplatin (shift in death) (%) | protection from cisplatin (shift in death), siRNA C (%) | protection from cisplatin (shift in death), siRNA D (%) | Call |
| --- | --- | --- | --- | --- | --- |
| LOC389316 | 0 | 0.2 | 3.8 | -3.5 | inactive |
| LOC440234 | 0 | -0.7 | -17.8 | 16.4 | inactive |
| ZNF486 (zinc finger protein 486) | 1 | 14.9 | 11.2 | 18.7 | inactive |
| TRIM68 (tripartite motif containing 68) | 0 | -16.3 | -20.6 | -12.1 | inactive |
| PKD2L1 | 0 | 6 | 12.1 | -0.2 | inactive |
| XRCC3 (X-ray repair cross complementing 3) | 0 | -12 | -16.3 | -7.8 | inactive |
| LOC441068 | 1 | 15.5 | 12.3 | 18.6 | inactive |
| OR4X1 (olfactory receptor family 4 subfamily X member 1) | 1 | -0.5 | 26.2 | -27.3 | inactive |
| TRIM28 (tripartite motif containing 28) | 1 | 5.9 | 12.4 | -0.5 | inactive |
| PSPN (persephin) | 0 | 12.2 | 12.5 | 11.9 | inactive |
| ZNF564 (zinc finger protein 564) | 0 | -0.2 | -1.4 | 1 | inactive |
| GABRG1 (gamma-aminobutyric acid type A receptor subunit gamma1) | 0 | -4.6 | -2 | -7.3 | inactive |
| GLG1 (golgi glycoprotein 1) | -1 | -12 | 5.7 | -29.8 | inactive |
| LOC389370 | 0 | 11 | 7.9 | 14 | inactive |
| NDE1 (nudE neurodevelopment protein 1) | 0 | 10.7 | 7.1 | 14.3 | inactive |
| OR7A10 (olfactory receptor family 7 subfamily A member 10) | 0 | -3.4 | 13.4 | -20.3 | inactive |
| EIF3L (eukaryotic translation initiation factor 3 subunit L) | 0 | -4.7 | -3 | -6.4 | inactive |
| DEK (DEK proto-oncogene) | 0 | 9.4 | 7.8 | 11 | inactive |
| RAP1GAP (RAP1 GTPase activating protein) | -1 | -13.5 | -33.3 | 6.3 | inactive |

7 entries from above, reformatted:
gene knocked down,two-siRNA summed score (-2 to +2),mean protection from cisplatin (shift in death) (%),"protection from cisplatin (shift in death), siRNA C (%)","protection from cisplatin (shift in death), siRNA D (%)",Call
ZNF564 (zinc finger protein 564),0,-0.2,-1.4,1,inactive
GABRG1 (gamma-aminobutyric acid type A receptor subunit gamma1),0,-4.6,-2,-7.3,inactive
GLG1 (golgi glycoprotein 1),-1,-12,5.7,-29.8,inactive
LOC389370,0,11,7.9,14,inactive
NDE1 (nudE neurodevelopment protein 1),0,10.7,7.1,14.3,inactive
OR7A10 (olfactory receptor family 7 subfamily A member 10),0,-3.4,13.4,-20.3,inactive
EIF3L (eukaryotic translation initiation factor 3 subunit L),0,-4.7,-3,-6.4,inactive

The list goes on.
| gene knocked down | two-siRNA summed score (-2 to +2) | mean protection from cisplatin (shift in death) (%) | protection from cisplatin (shift in death), siRNA C (%) | protection from cisplatin (shift in death), siRNA D (%) | Call |
| --- | --- | --- | --- | --- | --- |
| SMR3B (submaxillary gland androgen regulated protein 3B) | 0 | 7.5 | 7.5 | 7.4 | inactive |
| CCL4L1 (C-C motif chemokine ligand 4 like 1) | 0 | 2 | 7.4 | -3.4 | inactive |
| CDHR1 (cadherin related family member 1) | 1 | 14.6 | 8.5 | 20.8 | inactive |
| TERF2 (telomeric repeat binding factor 2) | 0 | -1.6 | -12.2 | 9 | inactive |
| MIR646HG (MIR646 host gene) | 0 | 4.9 | 7.1 | 2.7 | inactive |
| LOC390992 | 1 | 19.4 | 33.9 | 4.9 | inactive |
| PTMAP11 (prothymosin alpha pseudogene 11) | 0 | 9.9 | 14.2 | 5.6 | inactive |
| UBE4B (ubiquitination factor E4B) | 1 | 17.9 | 23.7 | 12.1 | inactive |
| SYT9 (synaptotagmin 9) | 1 | 9.3 | 4.8 | 13.9 | inactive |
| SIKE1 (suppressor of IKBKE 1) | 0 | 14 | 14.6 | 13.4 | inactive |
| DONSON (DNA replication fork stabilization factor DONSON) | 1 | 15.8 | 6.5 | 25.2 | inactive |
| MAPK3 (mitogen-activated protein kinase 3) | -1 | -2.1 | 9.8 | -14 | inactive |
| C1QTNF3 (C1q and TNF related 3) | 0 | 7.8 | 7 | 8.7 | inactive |
| TBX4 (T-box transcription factor 4) | 1 | 9.8 | 3 | 16.7 | inactive |
| LOC341511 | 0 | 26.3 | 19.9 | 32.8 | inactive |
| LOC402300 | 2 | 10.1 | 8.7 | 11.4 | active |
| VSIG2 (V-set and immunoglobulin domain containing 2) | 0 | 1.1 | 5.8 | -3.6 | inactive |
| ADIRF (adipogenesis regulatory factor) | 1 | 2.8 | -10.2 | 15.8 | inactive |
| ZNF620 (zinc finger protein 620) | -1 | 0.5 | 17.5 | -16.6 | inactive |
| NECAB1 (N-terminal EF-hand calcium binding protein 1) | 0 | 6.1 | 9.6 | 2.6 | inactive |
